Test results reported in PubChem BioAssay AID1347426 (Functional Genomics Laboratory (NCATS/FGL), 2020).
In all, about 31,000 sequences went through this assay and about 1,400 (4.5%) were called active.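 How the source made its calls: active means median seed-adjusted z-score above 1 or below -1; inactive means the rest.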 This is one part of the list.

Test: Novel Modifiers of Survival Motor Neuron (SMN) Protein: Gene Identification via Genome-wide siRNA Screen;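 further: luminescence tracks full-length SMN protein made from the SMN2 reporter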
Conditions: HEK293T SMN2-luciferase reporter, siRNA knockdown, 72 h; actives lie on both sides
Procedure, shortened: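 Steps: spot 1 pmol siRNA, add Lipofectamine RNAiMax in serum-free DMEM, seed HEK293T SMN2–luciferase reporter cells; incubate 72 h at 37 °C; add ONE-Glo; normalize luminescence to control siRNA, log10, MAD. Candidates: |MAD| > 1.0.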

Row | Sequence | median seed-adjusted z-score
1 | GAACAUCUUUUAGUCUCGATT against CSE1L | inactive: 0.425
2 | GCUCAUUGCCUGCACCACATT against TTLL10 | inactive: 0.211
3 | CCACUAAGAUGUAACUGUUTT against PLSCR2 | inactive: 0
4 | CAAAGACAAGGUCCCAUUUTT against IFI35 | inactive: 0.105
5 | GGCUUAUCUAUUACUACUATT against RBM44 | inactive: -0.00558
6 | GCCGAUAUCUUUCAUGUGATT against PAN2 | inactive: -0.139
7 | GGAAGUAAAUUUGAUGUAUTT against PON1 | inactive: 0
8 | CAAUUUCCACAGCCUCUAUTT against ADCY4 | inactive: -0.0551
9 | CAGUCUACUCAUUCGCUCATT against MEF2D | inactive: 0.0021
10 | GCGUGUUCAGCGUCACUGATT against NFIC | inactive: 0.72
11 | CGGACCAAGGGAUCACUGATT against ECHDC2 | inactive: -0.0827
12 | CGUUUAGAAGCAACGUGUATT against GPRC5B | inactive: 0
13 | GAGAUCAACGAGUACCUCATT against FOXQ1 | inactive: 0.369
14 | GGAUCACUGUGGAAUCGAATT against CTSB | inactive: -0.31
15 | GAUCAACGGAUGCUAUGAATT against CAPN2 | inactive: -0.0828
16 | CCACGAUCAUGUGAACCCATT against INDO | inactive: 0.0511
17 | GAGUGGACCGUGUUCCAUUTT against TAF7 | inactive: -0.593
18 | CCAGGGAUAUGAUUGACAATT against SERPINE2 | inactive: 0.0144
19 | CAAUGAUAGAUUUCAGAGATT against NANOG | inactive: -0.106
20 | GAAGGAUCCAAAGUGUAUATT against CHUK | inactive: -0.613
21 | GCAUAUUCCCACAAUGACATT against CR2 | inactive: 0.71
22 | AGUCAUUUUGGGAACCGAUTT against ACMSD | inactive: 0

Row | Sequence | median seed-adjusted z-score
23 | CCUGGAGCAUCGUAACAUUTT against F11 | inactive: -0.0319
24 | GCAACCUGGUGGACUCAUATT against DNM2 | inactive: 0.00254
25 | GCCUUUACUCGUUCCACUATT against ZNF20 | inactive: -0.359
26 | GGAAUAUUCUCAGCGUAAUTT against SLC17A1 | inactive: -0.271
27 | GGACAUCGCUAAACAGUUATT against TBC1D1 | inactive: -0.359
28 | GGCUCUUCGUUGUUUAGAATT against MAP3K1 | inactive: -0.217
29 | GGAUUCCCAUUUCGUCAAATT against OMD | inactive: 0
30 | AACUUAUGGAGUUACUAGATT against NAT5 | inactive: -0.0124
31 | UAUUCCACGUGGAGAAAAATT against CD44 | inactive: 0
32 | GGCUGGGCUUGCUAAUAAATT against ZNF628 | inactive: -0.121
33 | CACUCGAUUUGGUUCAGCATT against ITGA2 | inactive: 0.106
34 | CUGCUCACCCUUUACAUCATT against KIF12 | inactive: 0.0971
35 | GCUUCUCUUUGAAUACCCATT against KCNA2 | active: -1.03
36 | AGGCGGACUUGGACCUUCATT against NPM2 | inactive: 0.215
37 | CCAUUCAAGUGUUCGAAGATT against ZNF440 | inactive: 0.208
38 | GGCUUGACUAUUGACCUGATT against NONO | inactive: 0.555
39 | AUACCGUGAUUAACUCAUATT against CLDN23 | inactive: 0.817
40 | GCAUUGCGCUCAAUGACAATT against GAPDHS | inactive: -0.674
41 | GAACUUAACACUAACAGAUTT against HAO2 | inactive: 0.039
42 | CUCUGAGUAUUGACAGAUATT against EDNRB | inactive: 0.119
43 | GCCUCUGUAUGGAGUGAUUTT against FFAR2 | inactive: 0.146
44 | GGACUUCUGUGGACCUUAUTT against SLC2A2 | inactive: -0.498

Row | Sequence | median seed-adjusted z-score
45 | GACAUUUCCAUUUCGAAUATT against GPR87 | inactive: 0.237
46 | AGUCCUGUCUGAGCCCUGATT against TSC22D3 | inactive: 0.0129
47 | GCCUAUGAAUUUUCGCAAUTT against SERPINA10 | inactive: 0.0233
48 | GGAGUGCUAGAAUCUACUATT against HEPH | inactive: -0.293
49 | ACCAAGCCGUGACCAAGGATT against NOXA1 | inactive: -0.441
50 | GACGGACAGUCAAACCUAATT against KLHL18 | inactive: -0.126
51 | ACGUCGUUCGAGUUCCUAATT against GTF2F1 | inactive: -0.556
52 | GCCUCUAUGCUACAAGAUUTT against TBX22 | inactive: 0.0269
53 | UGGAUAUGUGGGAAAAUAATT against GEM | inactive: 0.018
54 | AACUUGUAUUCUUAGGUUUTT against SAR1A | inactive: 0.0213
55 | GAAACGAACUGGGCAGUAUTT against FGF2 | inactive: 0.0208
56 | GGAUCCAGUUGCAAUGAUATT against ATG16L1 | inactive: -0.187
57 | CAACAAUUGUGCGAAGAUUTT against TRAF5 | inactive: 0.598
58 | AGAGGAACUUUAUUCUUGATT against HNRNPUL2 | inactive: -0.0273
59 | GCUUUGAACCCGGUGCAGATT against WNT5B | inactive: 0.72
60 | AGAAUAAAUUAUUAGCUGATT against BET1 | inactive: 0.394
61 | CCCUGUUCGUGUGACACUATT against SPRED1 | inactive: 0.387
62 | CAGCUGCUAUCAGAACGGATT against APBA2 | active: 1.66
63 | GCUAUAAUGCUACAACAAATT against KLHL2 | inactive: 0
64 | CUGUUGUCCUCUAUCCUUATT against TM7SF4 | inactive: 0.0246
65 | GAGAAGAUGUUGACGCGAATT against TRPM4 | inactive: 0.0519
66 | GAACUGGUCUUUAAGGACATT against SRL | inactive: 0.148

Looked up above.
For median seed-adjusted z-score, ACCAAGCCGUGACCAAGGATT against NOXA1 is listed with inactive: -0.441
For median seed-adjusted z-score, GCAUAUUCCCACAAUGACATT against CR2 is listed with inactive: 0.71
For median seed-adjusted z-score, GCCUUUACUCGUUCCACUATT against ZNF20 is listed with inactive: -0.359
For median seed-adjusted z-score, CCACUAAGAUGUAACUGUUTT against PLSCR2 is listed with inactive: 0
For median seed-adjusted z-score, GAACUUAACACUAACAGAUTT against HAO2 is listed with inactive: 0.039
For median seed-adjusted z-score, AGUCAUUUUGGGAACCGAUTT against ACMSD is listed with inactive: 0

Next results follow.

Row | Sequence | median seed-adjusted z-score
67 | GCCUGGAACUCGUUAGCAATT against TRMT11 | inactive: -0.707
68 | GCUCAGCUCUGGUACUUUATT against GTF2H4 | inactive: -0.261
69 | AAACAACCAUGAGAUCAGATT against STOML2 | inactive: -0.264
70 | AGAUGUUUCUAAGCAGUGUTT against TFAP2E | inactive: 0.243
71 | CAAGAAGGCUGGAACGGAATT against APOA2 | inactive: -0.297
72 | GGAACAUCAGGGACAACGATT against TNPO2 | inactive: 0.0785
73 | CCUUAUAAAUGCGAUUUAUTT against ZNF445 | inactive: -0.0752
74 | CAAAGUGAAUGCUGACAUATT against NSDHL | inactive: 0.716
75 | GACCUAACCAAGCACCAGATT against RAB25 | inactive: -0.04
76 | GCUUGGUUAUCUCCAUUUUTT against PIGH | inactive: -0.327
77 | GUACCUUUUCCAAACCAAATT against SETD8 | active: -1.52
78 | AGACUUUGGUUUACAUACATT against ATG4B | inactive: -0.703
79 | GCAUUUUCCGCCUACCACATT against POLM | active: -1.55
80 | GCACAGAAUUCUCCACCCATT against PHYHD1 | inactive: -0.37
81 | CAAUAUCUCUGGUAUUGAATT against BTF3 | inactive: 0.0468
82 | GCACUGCUCUUGAUGAUCATT against SLC6A16 | inactive: -0.461
83 | CAUUGUCAAAGGUCAACAATT against EPS15 | inactive: -0.478
84 | CCACAACCAAUGCAUGUGATT against KRT33A | inactive: -0.107
85 | GCAAGGUACUCGAUUCAAATT against TINAG | inactive: 0.374
86 | GGACAAUCAGUUAACAUCATT against SHOC2 | inactive: -0.403
87 | GGGUAAAGUUGUGGAAUUATT against KIF21B | inactive: 0.934
88 | CUGUCUCAAUACAAGAACATT against SLC28A2 | inactive: -0.076

Row | Sequence | median seed-adjusted z-score
89 | GAAUCAAGUGAGCCCAGGATT against PILRA | inactive: 0.0834
90 | CACUAUCUCCCGGAUCACATT against LDB3 | inactive: 0
91 | GACCCGCGAUUAAACCUCATT against CHST1 | inactive: 0.181
92 | GUUAUUAAAGGAUAACUAUTT against SLC2A3 | inactive: -0.277
93 | GCAUAAACACUUCACGGAATT against SRPK2 | inactive: 0.654
94 | CUGCGAUUGUUUAUAUGCATT against CCNT2 | inactive: -0.836
95 | GGGUUCACCUAAUAGUGCATT against OPCML | inactive: -0.282
96 | GAGACACUUUUGCGAAGUATT against UBE3C | inactive: 0.0341
97 | GCACCGACAUCACUAAACATT against DDX25 | inactive: 0
98 | GCCUACAAUUGGACCCAGATT against EPX | inactive: 0.159
99 | CCACACUGGUUAAUGAAGATT against YSK4 | inactive: -0.181
100 | GACUAUUCCUGAUCCUUAUTT against AGBL2 | inactive: -0.796
101 | GCCUCAUCGAGAUCGGGAATT against ADAMTS2 | inactive: -0.338
102 | CGGUUUCACAGGUUGGACATT against RAB7L1 | inactive: 0.243
103 | GUUCUAACCUUAUCCAACATT against ZNF34 | inactive: 0.0391
104 | CCGUCGAUCACUAUCCAAATT against RECK | inactive: -0.000321
105 | CAAGAUACCUGGGUCAUGATT against PREX2 | inactive: -0.0625
106 | AGACCAUCCCUAACGGAUATT against PRELP | inactive: -0.0579
107 | GAAGAACGGAGGAUAUAUUTT against NPAS3 | inactive: -0.0316
